Assay [1] has as its target T1, mitochondrially encoded Cox6 with a C-terminal protein C tag (product of COX6-C^m) (S. cerevisiae) (UniProt P61829+P00427).
T1 sequence (chain, 35S-methionine/cysteine label): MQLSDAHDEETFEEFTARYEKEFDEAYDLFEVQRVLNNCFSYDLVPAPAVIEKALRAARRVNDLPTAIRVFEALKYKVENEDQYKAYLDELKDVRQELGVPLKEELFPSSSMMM
Briefly: co-IP; mitochondria labelled with 35S-methionine/cysteine for 20 min, extracted with 2% digitonin, purified on protein C antibody beads; eluate on 12% SDS-PAGE, autoradiography.

Protein sequences, listed by entry. Tags and fused reporters are not part of them. Lines headed by an entry give the natural chain unless they say otherwise; changes in a name come on top.
UniProt P61829: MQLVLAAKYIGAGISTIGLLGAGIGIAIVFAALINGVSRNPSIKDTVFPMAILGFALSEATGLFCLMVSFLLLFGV

Assay [2] addresses T1, mitochondrially encoded Cox6 with a C-terminal protein C tag (product of COX6-C^m) (S. cerevisiae). Briefly: co-IP + native gel or EMSA; digitonin extract of 35S-labelled mitochondria purified on protein C beads, then BN-PAGE (4-13%) in the first and SDS-PAGE (12%) in the second dimension, autoradiography.

No constants are given. Whether binding was seen depends on the method and setting. Binding seen in cells or lysates may run through a third protein. Some results given as binding are weak or reduced against the parent protein; the word gives no strength. Tags and fused reporters may be left off the sequences shown.

As for “Atp9 subunit of the ATP synthase (from UniProt P61829 1-76)”, the binding result in assay [1] and in assay [2] was “binds” in each case.

B1: mitochondrially encoded Cox6 with a C-terminal protein C tag (product of COX6-C^m) (protein, UniProt P61829 1-3; P00427 41-148)
chain: T1 sequence (chain, 35S-methionine/cysteine label)
modifications: 35S-methionine/cysteine label
As to B1, in assay [2], the binding result was “no binding”.

Values taken from paper PMC10442929.
